## Results from one PubChem assay

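A cell line overexpressing EP4 prostanoid receptors, stimulated with a low (about EC15) PGE2 dose; cAMP read by HTRF FRET after a short room-temperature incubation.
Compounds were tested at 20 µM final. A low (about EC15) PGE2 dose was present.
Percent cAMP induction as a fraction of the 1 µM PGE2 response, averaged over three replicates; a higher value means more cAMP.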

Values are in %.
Common to all entries: measured here: EP4 receptor counter-screen.
This is a side read-out of the assay, for part of the compounds, not drawn at random.

| # | SMILES | tested on / at | cAMP induction (%) |
|---|---|---|---|
| 1 | `COC(=O)c1sc2nc(-c3ccccc3)c3c(c2c1N)CCCC3` | percent of 1 uM PGE2 response; plus low (about EC15) PGE2 agonist | 39.53 |
| 2 | `CN(C)c1nccc(N(Cc2ccccc2)Cc2ccccc2)c1C#N` | percent of 1 uM PGE2 response; plus low (about EC15) PGE2 agonist | -8.187 |
| 3 | `CCOC(=O)Nc1sc2c(c1C(=O)OCC)CCC2` | percent of 1 uM PGE2 response; plus low (about EC15) PGE2 agonist | 8.367 |
| 4 | `C[C@H]1CC[C@@H](C(C)(C)O)CC2=C1CC[C@@H]2C` | percent of 1 uM PGE2 response; plus low (about EC15) PGE2 agonist | -3.543 |
| 5 | `O=C(c1cccs1)c1cn(Cc2ccccc2Cl)c2ccccc12` | - | 8.22 |
| 6 | `COC(=O)c1cc(Br)c(=O)n(-c2nccs2)c1` | percent of 1 uM PGE2 response; plus low (about EC15) PGE2 agonist | 62.86 |
| 7 | `Cc1cc(SCC(=O)NCCC2=CCCCC2)nc2ccccc12` | percent of 1 uM PGE2 response; plus low (about EC15) PGE2 agonist | -1.417 |
| 8 | `COc1ccccc1C1c2[nH]c3ccccc3c2CCN1Cc1cnc(C)s1` (configuration not stated) | percent of 1 uM PGE2 response; plus low (about EC15) PGE2 agonist | 7.127 |
| 9 | `COc1ccc2cc3c(N)nn(C(=O)C4CCC(C(C)(C)C)CC4)c3nc2c1` (configuration not stated) | percent of 1 uM PGE2 response; plus low (about EC15) PGE2 agonist | 3.523 |
| 10 | `COCC(=O)N(C)c1nnc(-c2cnc(C)cn2)s1` | percent of 1 uM PGE2 response; plus low (about EC15) PGE2 agonist | 3.533 |
| 11 | `O=C(c1ccc(Cl)cc1)c1oc2ccccc2c1CS(=O)c1ccccc1` (configuration not stated) | percent of 1 uM PGE2 response; plus low (about EC15) PGE2 agonist | -20.87 |
| 12 | `COC(=O)c1ccc(-c2ccco2)n1Cc1cccc(C)c1` | percent of 1 uM PGE2 response; plus low (about EC15) PGE2 agonist | 9.727 |
| 13 | `CCOP(=O)(OCC)c1nc(-c2ccc(Cl)cc2)oc1NCc1ccccc1` | percent of 1 uM PGE2 response; plus low (about EC15) PGE2 agonist | 6.717 |
| 14 | `CCOC(=O)c1c(NC(=O)c2cccs2)sc2c1CCN(C(=O)OCC)C2` | percent of 1 uM PGE2 response; plus low (about EC15) PGE2 agonist | -0.01667 |
| 15 | `COc1ccc(-c2nnc(N3CCC(C)CC3)c3ccccc23)cc1` | percent of 1 uM PGE2 response; plus low (about EC15) PGE2 agonist | -11.1 |
| 16 | `CC(=O)N(c1cccc(Br)c1)C1C=CS(=O)(=O)C1` (configuration not stated) | percent of 1 uM PGE2 response; plus low (about EC15) PGE2 agonist | -5.873 |
| 17 | `Cc1ccc(Oc2nc(-c3ccccc3)ncc2S(C)(=O)=O)cc1` | percent of 1 uM PGE2 response; plus low (about EC15) PGE2 agonist | 4.3 |
| 18 | `CCn1c(=NC(=O)c2ccc(S(=O)(=O)N3CCOCC3)cc2)sc2cccc(OC)c21` | percent of 1 uM PGE2 response; plus low (about EC15) PGE2 agonist | -8.307 |

For reference, 2 entries once more:

| SMILES | tested on / at | cAMP induction (%) |
|---|---|---|
| `C[C@H]1CC[C@@H](C(C)(C)O)CC2=C1CC[C@@H]2C` | percent of 1 uM PGE2 response; plus low (about EC15) PGE2 agonist | -3.543 |
| `CC(=O)N(c1cccc(Br)c1)C1C=CS(=O)(=O)C1` (configuration not stated) | percent of 1 uM PGE2 response; plus low (about EC15) PGE2 agonist | -5.873 |

The results are deposited in PubChem (AID1080; Emory University Molecular Libraries Screening Center, 2008).